# Reference: the supplement of paper PMC12067093, “Discovery and optimisation of a covalent ligand for TRIM25 and its application to targeted protein ubiquitination” (Chemical Science, 2025)
# This is one part of the list.
# Compound: Cc1cc(ccc1-c1ccccc1)C(=O)N1CCCN(CC1)C(=O)CCl [compound 10]
# Experiment: probe-labelled cysteine peptide fold change vs DMSO (competition) (log2 fold change); higher = less target engagement (more negative = stronger competition)
# Conditions: THP-1, incubation time: 4 h
# 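Also: competitive profiling in live THP-1 cells: cysteine peptides tagged with an iodoacetamide desthiobiotin (IA-DTB) probe, intensity after compound treatment relative to DMSO-treated cells.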
Target,probe-labelled cysteine peptide fold change (10 µM),probe-labelled cysteine peptide fold change (50 µM)
PSMC5_P62195_112_NIDINDVTPNCR (UniProt P62195),-0.146,-0.155
PTPN9_P43378_567_AFSIQTPEQYYFCYK (UniProt P43378),0.197,-0.00044
PTPRC_P08575_1261_QDANCVNPLGAPEK (UniProt P08575),-0.14,0.111
PTPRC_P08575_311_FQLHDCTQVEK (UniProt P08575),-0.532,0.0351
PTGFRN_Q9P2B2_655_CMVTAWSPVR (UniProt Q9P2B2),-0.11,0.168
PSMG2_Q969U7_195_TLYDESCSK (UniProt Q969U7),-0.0156,0.0763
PSMD1_Q99460_659+660_YGAAMALGICCAGTGNK (UniProt Q99460),0.0137,-0.24
PTPN7_P35236_324_GEVDILGIVCQLR (UniProt P35236),0.0959,-0.0944
PTPN7_P35236_324_ARGEVDILGIVCQLR (UniProt P35236),0.145,0.0571
PTBP3_O95758_68_IPCDVTEAEIISLGLPFGK (UniProt O95758),-0.0285,-0.154
PTPRC_P08575_344_FQCGNMIFDNK (UniProt P08575),-0.261,-0.0286
PURB_Q96QR8_238_FFFDVGCNK (UniProt Q96QR8),0.237,0.012
PTPN3_P26045_206_QSEAESCYINIAR (UniProt P26045),-0.18,-0.0493
PTGES3_Q15185_58_HLNEIDLFHCIDPNDSK (UniProt Q15185),-0.121,-0.322
PSMD14_O00487_299_HLEEHVDVLMTSNIVQCLAAMLDTVVFK (UniProt O00487),0.0884,-0.534
PSME4_Q14997_958_TLTVEGCEYK (UniProt Q14997),-0.00149,0.216
PTGFRN_Q9P2B2_169_CTAASASPLHTHLALLWEVHR (UniProt Q9P2B2),0.115,-0.0303
PSMC2_P35998_377_LCPNSTGAEIR (UniProt P35998),0.0275,0.0409
PSME1_Q06323_22_VDVFREDLCTK (UniProt Q06323),-0.172,-0.309
PSMD6_Q15008_266_QYLFSLYECR (UniProt Q15008),0.133,0.553
PSMC1_P62191_148_DLLEPGCSVLLNHK (UniProt P62191),0.0637,0.0514
PSMD6_Q15008_112_AEYLCR (UniProt Q15008),-0.153,0.127

Target,probe-labelled cysteine peptide fold change (10 µM),probe-labelled cysteine peptide fold change (50 µM)
PTRH1_Q86Y79_179_VGIGRPAHPEAVQAHVLGCFSPAEQELLPLLLDR (UniProt Q86Y79),0.109,-0.55
PSME4_Q14997_1267_EWESSCFVEK (UniProt Q14997),-0.154,-0.057
PTPN1_P18031_32_HEASDFPCR (UniProt P18031),0.0814,0.0973
PTPN23_Q9H3S7_116_SVAHEDIKYEQACILYNLGALHSMLGAMDKR (UniProt Q9H3S7),0.144,-0.327
PTBP3_O95758_55_RDRPPCSPSR (UniProt O95758),0.0429,0.226
PTPRE_P23469_630_QQQQTGNHPITVHCSAGAGR (UniProt P23469),0.208,0.226
PTPN11_Q06124_259_QGFWEEFETLQQQECK (UniProt Q06124),-0.0531,-0.212
PUS10_Q3MIT2_29_FCGVDFHAPYK (UniProt Q3MIT2),0.0484,-0.1
PTPN11_Q06124_490_GVDCDIDVPK (UniProt Q06124),-0.00676,0.0192
PSMD1_Q99460_112_QCVENADLPEGEK (UniProt Q99460),-0.196,0.0968
PUM2_Q8TB72_813_GHVLPLALQMYGCR (UniProt Q8TB72),-0.0109,-0.15
PSMA6_P60900_47_DCAVIVTQK (UniProt P60900),0.109,0.0462
PTPRF_P10586_107_VQRDEAIYECTATNSLGEINTSAK (UniProt P10586),-0.404,-0.916
PSMC3_P17980_240_ACAAQTK (UniProt P17980),-0.0208,-0.0025
PSMC1_P62191_58_LPLVTPHTQCR (UniProt P62191),-0.0192,0.104
PSMD9_O00233_216_GLLGCNIIPLQR (UniProt O00233),0.44,0.471
PTRH1_Q86Y79_72_DRHCAADLALAPLGDAQLVLLRPR (UniProt Q86Y79),-0.0227,0.0387
PSMD8_P48556_173_CYYFDYK (UniProt P48556),0.194,0.631
PTER_Q96BW5_38+43_TLTHEHLAMTFDCCYCPPPPCQEAISK (UniProt Q96BW5),-0.244,-0.944
PSMG1_O95456_169_NMQITILTCR (UniProt O95456),0.0336,-0.278
PTK2B_Q14289_677_FTELVCSLSDVYQMEK (UniProt Q14289),0.0567,-0.0135
PUM1_Q14671_234_SESGGLGVSMVEYVLSSSPGDSCLRK (UniProt Q14671),-0.247,-0.399

# An excerpt of these results, bar-delimited.
Target | probe-labelled cysteine peptide fold change (10 µM) | probe-labelled cysteine peptide fold change (50 µM)
PUS10_Q3MIT2_29_FCGVDFHAPYK (UniProt Q3MIT2) | 0.0484 | -0.1
PTPN11_Q06124_490_GVDCDIDVPK (UniProt Q06124) | -0.00676 | 0.0192
PSMD1_Q99460_112_QCVENADLPEGEK (UniProt Q99460) | -0.196 | 0.0968
PUM2_Q8TB72_813_GHVLPLALQMYGCR (UniProt Q8TB72) | -0.0109 | -0.15
PSMA6_P60900_47_DCAVIVTQK (UniProt P60900) | 0.109 | 0.0462
PTPRF_P10586_107_VQRDEAIYECTATNSLGEINTSAK (UniProt P10586) | -0.404 | -0.916

# (list continues)

Target,probe-labelled cysteine peptide fold change (10 µM),probe-labelled cysteine peptide fold change (50 µM)
PSMD14_O00487_120_QTGRPEMVVGWYHSHPGFGCWLSGVDINTQQSFEALSER (UniProt O00487),0.00935,0.0662
PSMB3_P49720_19_NCVAIAADRR (UniProt P49720),0.0313,0.234
PTPMT1_Q8WUK0_127_YQSLGQCVYVHCK (UniProt Q8WUK0),0.0664,0.117
PUM2_Q8TB72_983_ALLIDEVCCQNDGPHSALYTMMK (UniProt Q8TB72),-0.176,-0.303
PTPRC_P08575_1261_QDANCVNPLGAPEKLPEAK (UniProt P08575),-0.187,-0.881
PSMA4_P25789_107_YLLQYQEPIPCEQLVTALCDIK (UniProt P25789),0.268,0.644
PTPA_Q15257_103_AGHCAPSEAIEK (UniProt Q15257),-0.17,-0.477
PSMD11_O00231_202_TTANAIYCPPK (UniProt O00231),0.077,0.248
PTK2B_Q14289_89_LAECYGLR (UniProt Q14289),0.064,0.0132
PSMD9_O00233_59_GIGMNEPLVDCEGYPR (UniProt O00233),-0.202,-0.434
PSMD13_Q9UNM6_49_KLWHQLTLQVLDFVQDPCFAQGDGLIK (UniProt Q9UNM6),-0.314,0.0276
PSMC6_P62333_228_DHQPCIIFMDEIDAIGGRR (UniProt P62333),-0.172,-0.306
PSME2_Q9UL46_91_CGFLPGNEK (UniProt Q9UL46),-0.3,-0.207
PUM3_Q15397_610_GAIILSSLLQSCDLEVANK (UniProt Q15397),0.0674,0.101
PSME4_Q14997_718_QGYTLSCNLLHHLLR (UniProt Q14997),0.366,0.173
PSMA3_P25788_42_CKDGVVFGVEK (UniProt P25788),-0.124,-0.702
PTTG1IP_P53801_81_ACLDYPVTSVLPPASLCK (UniProt P53801),-0.00573,0.0791
PSMB3_P49720_19_NCVAIAADR (UniProt P49720),-0.109,0.229
PSMG2_Q969U7_168_CIPEIDDSEFCIR (UniProt Q969U7),-0.105,0.00831
PSMD3_O43242_210_CYYYHAR (UniProt O43242),0.00961,0.0335
PSMA5_P28066_76_IVEIDAHIGCAMSGLIADAK (UniProt P28066),0.0618,-0.148
PSMB5_P28074_161_GMGLSMGTMICGWDK (UniProt P28074),-0.0589,0.252

Target,probe-labelled cysteine peptide fold change (10 µM),probe-labelled cysteine peptide fold change (50 µM)
PTER_Q96BW5_289_LLVEEGCEDR (UniProt Q96BW5),-0.0539,0.0311
PTPN7_P35236_228_ECPEYTVR (UniProt P35236),-0.101,-0.0869
PSMC2_P35998_270_KACLIFFDEIDAIGGAR (UniProt P35998),0.0505,-0.746
PSMD2_Q13200_448_SGALLACGIVNSGVR (UniProt Q13200),0.0886,0.207
PTPN11_Q06124_567_YSLADQTSGDQSPLPPCTPTPPCAEMR (UniProt Q06124),-0.0966,-0.929
PTPRC_P08575_1169_STPLLIHCR (UniProt P08575),-0.0815,-0.274
PSMC3_P17980_387+396_CTDDFNGAQCK (UniProt P17980),-0.125,0.00299
PTRH1_Q86Y79_72_HCAADLALAPLGDAQLVLLRPR (UniProt Q86Y79),-0.171,0.46
PSMB1_P20618_224_ICIVTK (UniProt P20618),0.167,-0.0433
PTDSS1_P48651_347_QYYAYLTDTQCKR (UniProt P48651),0.000125,-0.0263
PTGES3_Q15185_20_DYVFIEFCVEDSK (UniProt Q15185),0.177,0.0951
PSMD6_Q15008_188_VYQGLYCVAIR (UniProt Q15008),0.27,0.332
PSMC2_P35998_236_TDACFIR (UniProt P35998),-0.0522,-0.111
PSMD4_P55036_87_ITFCTGIR (UniProt P55036),0.00806,0.0522
PSMC1_P62191_399_AICTEAGLMALR (UniProt P62191),0.0866,0.0812
PUM1_Q14671_980_CIECVQPQSLQFIIDAFK (UniProt Q14671),0.213,-0.0133
PUS10_Q3MIT2_21_HVAQLLLNTGTCPR (UniProt Q3MIT2),0.0888,-0.105
PTPRC_P08575_1072_HGDQEICAQYWGEGK (UniProt P08575),-0.067,0.374
PUM3_Q15397_371_VAMHCLWHGTPK (UniProt Q15397),0.197,0.0431
PTK2B_Q14289_61_CTVQTEIR (UniProt Q14289),0.21,0.229
